{"source": "PubChem BioAssay AID652243 (Drosophila RNAi Screening Center, 2013)", "purpose": "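Knock-downs that decrease or increase androgen receptor reporter signal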 (primary screen)", "system": "Drosophila S2R+ cells", "reagents": "long dsRNA against Drosophila genes", "duration": "72 h (48 h, then 24 h hormone)", "treatment": "synthetic androgen R1881 at 10 nM for 24 h", "measured": "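Per-well raw luminescence of the androgen-driven firefly reporter and of the Renilla control, two replicates each, without normalisation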", "scale": "firefly reporter light: higher = more light from androgen-responsive reporter; Renilla control light: higher = more constitutive control signal (cell number, transfection)", "call rule": "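Hit when the log firefly-to-Renilla ratio dropped or increased by a fixed fold versus the mean of GFP or LacZ controls across duplicate plates; lowering cut given as 1.5 and as 3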", "meaning of the calls": "active = hit: reporter lowered or raised; inactive = no hit", "note": "The screen tested about 24,000 reagents; this is an unselected part of those that have a named target and a result. Of all reagents, 246 (1%) are marked active. 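Plates not normalised; calls are printed but the firefly/Renilla ratio behind them is not deposited; fold cut for lowering reported inconsistently.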 Raw values vary from plate to plate and are shown uncorrected. Unmarked entries are inactive. Reagents against one gene are numbered here. The record does not give: the amount of reagent."}
{"Gene":"CG13319","reagent":1,"firefly reporter light, replicate 1":5.26e5,"firefly reporter light, replicate 2":4.68e5,"Renilla control light, replicate 1":2.69e6,"Renilla control light, replicate 2":2.34e6}
{"Gene":"CG7914","reagent":1,"firefly reporter light, replicate 1":1.45e5,"firefly reporter light, replicate 2":75704,"Renilla control light, replicate 1":4.63e5,"Renilla control light, replicate 2":2.36e5}
{"Gene":"CG7914","reagent":2,"firefly reporter light, replicate 1":4.03e5,"firefly reporter light, replicate 2":4.93e5,"Renilla control light, replicate 1":1.19e6,"Renilla control light, replicate 2":1.24e6}
{"Gene":"CG13631","reagent":1,"firefly reporter light, replicate 1":1.11e6,"firefly reporter light, replicate 2":8.90e5,"Renilla control light, replicate 1":1.75e6,"Renilla control light, replicate 2":1.29e6}
{"Gene":"CG13631","reagent":2,"firefly reporter light, replicate 1":5.01e5,"firefly reporter light, replicate 2":5.49e5,"Renilla control light, replicate 1":1.41e6,"Renilla control light, replicate 2":1.48e6}
{"Gene":"CG5509","reagent":1,"firefly reporter light, replicate 1":74480,"firefly reporter light, replicate 2":1.09e5,"Renilla control light, replicate 1":1.11e6,"Renilla control light, replicate 2":1.60e6}
{"Gene":"Hsp67Ba","reagent":1,"firefly reporter light, replicate 1":77763,"firefly reporter light, replicate 2":77989,"Renilla control light, replicate 1":1.42e6,"Renilla control light, replicate 2":1.27e6}
{"Gene":"Hsp67Ba","reagent":2,"firefly reporter light, replicate 1":3.66e5,"firefly reporter light, replicate 2":5.24e5,"Renilla control light, replicate 1":4.07e5,"Renilla control light, replicate 2":7.12e5}
{"Gene":"CG14227","reagent":1,"firefly reporter light, replicate 1":5.95e5,"firefly reporter light, replicate 2":6.45e5,"Renilla control light, replicate 1":3.57e6,"Renilla control light, replicate 2":4.54e6}
{"Gene":"CG14227","reagent":2,"firefly reporter light, replicate 1":7.70e5,"firefly reporter light, replicate 2":6.87e5,"Renilla control light, replicate 1":1.13e6,"Renilla control light, replicate 2":1.05e6}
{"Gene":"Or88a","reagent":1,"firefly reporter light, replicate 1":83756,"firefly reporter light, replicate 2":1.52e5,"Renilla control light, replicate 1":1.51e6,"Renilla control light, replicate 2":2.17e6}

4 successive records already listed:
{"Gene":"CG13631","reagent":2,"firefly reporter light, replicate 1":5.01e5,"firefly reporter light, replicate 2":5.49e5,"Renilla control light, replicate 1":1.41e6,"Renilla control light, replicate 2":1.48e6}
{"Gene":"CG5509","reagent":1,"firefly reporter light, replicate 1":74480,"firefly reporter light, replicate 2":1.09e5,"Renilla control light, replicate 1":1.11e6,"Renilla control light, replicate 2":1.60e6}
{"Gene":"Hsp67Ba","reagent":1,"firefly reporter light, replicate 1":77763,"firefly reporter light, replicate 2":77989,"Renilla control light, replicate 1":1.42e6,"Renilla control light, replicate 2":1.27e6}
{"Gene":"Hsp67Ba","reagent":2,"firefly reporter light, replicate 1":3.66e5,"firefly reporter light, replicate 2":5.24e5,"Renilla control light, replicate 1":4.07e5,"Renilla control light, replicate 2":7.12e5}

Additional reagents follow.
{"Gene":"Ssadh","reagent":1,"firefly reporter light, replicate 1":1.01e5,"firefly reporter light, replicate 2":69336,"Renilla control light, replicate 1":7.70e5,"Renilla control light, replicate 2":7.23e5}
{"Gene":"Ssadh","reagent":2,"firefly reporter light, replicate 1":7.36e5,"firefly reporter light, replicate 2":5.91e5,"Renilla control light, replicate 1":9.40e5,"Renilla control light, replicate 2":9.78e5}
{"Gene":"Su(P)","reagent":1,"firefly reporter light, replicate 1":2.29e5,"firefly reporter light, replicate 2":1.73e5,"Renilla control light, replicate 1":2.12e6,"Renilla control light, replicate 2":1.83e6}
{"Gene":"Su(P)","reagent":2,"firefly reporter light, replicate 1":5.98e5,"firefly reporter light, replicate 2":4.60e5,"Renilla control light, replicate 1":1.38e6,"Renilla control light, replicate 2":1.21e6}
{"Gene":"LysX","reagent":1,"firefly reporter light, replicate 1":1.18e5,"firefly reporter light, replicate 2":2.10e5,"Renilla control light, replicate 1":1.66e6,"Renilla control light, replicate 2":1.98e6}
{"Gene":"Cyp4d2","reagent":1,"firefly reporter light, replicate 1":74184,"firefly reporter light, replicate 2":85573,"Renilla control light, replicate 1":6.79e5,"Renilla control light, replicate 2":5.01e5}
{"Gene":"CG30472","reagent":1,"firefly reporter light, replicate 1":4.53e5,"firefly reporter light, replicate 2":6.38e5,"Renilla control light, replicate 1":1.45e6,"Renilla control light, replicate 2":2.15e6}
{"Gene":"CG30472","reagent":2,"firefly reporter light, replicate 1":3.51e5,"firefly reporter light, replicate 2":3.71e5,"Renilla control light, replicate 1":7.70e5,"Renilla control light, replicate 2":4.68e5}
{"Gene":"Oseg5","reagent":1,"firefly reporter light, replicate 1":1.49e5,"firefly reporter light, replicate 2":1.44e5,"Renilla control light, replicate 1":1.21e6,"Renilla control light, replicate 2":1.48e6}
{"Gene":"Slh","reagent":1,"firefly reporter light, replicate 1":1.46e5,"firefly reporter light, replicate 2":1.91e5,"Renilla control light, replicate 1":1.01e6,"Renilla control light, replicate 2":1.35e6}
{"Gene":"Slh","reagent":2,"firefly reporter light, replicate 1":87852,"firefly reporter light, replicate 2":74420,"Renilla control light, replicate 1":7.04e5,"Renilla control light, replicate 2":7.58e5}
{"Gene":"Slh","reagent":3,"firefly reporter light, replicate 1":2.37e5,"firefly reporter light, replicate 2":3.20e5,"Renilla control light, replicate 1":7.67e5,"Renilla control light, replicate 2":8.01e5}
